Not every detail of the peptide structures is certain; ends, links or a residue may be inferred. Where a SMILES comes first, the peptide text is derived from it. Bridges are numbered along the chain shown (N, C = ends).
How the values were obtained:
[1] = target: T1, NPR-C (Homo sapiens, UniProt P17342); assay: Measurement of binding affinities for NPR-C, membranes from stable 293 cell lines, 125I rat ANP displacement; set-up: unit not given here; details: pure synthetic peptide vs 30 pM 125I rat ANP, 2 hours room temperature; duplicate points, three separate assays
T1 construct: expressed in transfected cells
T1 sequence (P17342 27-541): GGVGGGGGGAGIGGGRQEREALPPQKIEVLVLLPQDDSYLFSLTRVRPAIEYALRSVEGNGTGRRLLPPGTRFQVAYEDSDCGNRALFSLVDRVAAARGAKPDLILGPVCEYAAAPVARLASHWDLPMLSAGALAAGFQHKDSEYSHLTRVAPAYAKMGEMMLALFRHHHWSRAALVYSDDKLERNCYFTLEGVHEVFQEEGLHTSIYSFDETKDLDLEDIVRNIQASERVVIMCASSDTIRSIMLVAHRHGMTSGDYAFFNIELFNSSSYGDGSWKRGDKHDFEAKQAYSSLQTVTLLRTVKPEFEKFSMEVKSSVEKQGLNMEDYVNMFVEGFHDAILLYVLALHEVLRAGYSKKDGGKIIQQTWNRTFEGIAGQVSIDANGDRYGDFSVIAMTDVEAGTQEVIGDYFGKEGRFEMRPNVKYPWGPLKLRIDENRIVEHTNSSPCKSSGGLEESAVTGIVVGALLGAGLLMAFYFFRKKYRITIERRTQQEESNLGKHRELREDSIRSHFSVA
Description: (§1) Membrane Preparation Membranes from stable 293 cell lines expressing NPR-A (Lowe and Fendly (1992) J. Biol. Chem.) or NPR-C (Cunningham et al. (1994) supra) were prepared by removing the cells from tissue culture plates with 0.5MM EDTA in PBS, centrifuging at 225×g, 4° C., and resuspending in 50 mM Hepes Ph7.4, 1 mM EDTA, 1 mM DTT, 250 mM Sucrose, 0.7 μg/ml Pepstatin A, 0.5 μg/ml Leupeptin, 1 mM PMSF, 1 μM Phosphoramidon. The resuspended cells were homogenized for 30 seconds with a Brinkman polytron on setting 5. The homogenate was centrifuged in 30 ml corex tubes in Sorval HB-4 rotor at 400×(1500 rpm) for 10 minutes at 4° C. The supernatant was centrifuged again in screw cap polycarbonate tubes (Beckman 355618) at 100,000×g (31,500 rpm) for 30 minutes, 4° C. in a Beckman TI60 rotor. The pellet was resuspended in 50 mM Hepes, 0.1 mM EDTA, 5.0 mM MgCl2, 100 mM NaCl, 0.7μg/ml Pepstatin A, 0.5 μg/ml Leupeptin, 1 mM PMSF, 1 μM Phosphoramidon and homogenized again with 15 strokes in a Dounce homogenizer (Wheaton 7 ml, #357542). The membranes were passed through a 22 gauge needle several times before aliquoting into eppendorf tubes for storage at -80° C.
(§2) The binding was allowed to go for 2 hours at room temperature in 96 well U-bottomed microtiter polypropylene plates (Sigma M-4029) with gentle agitation. […] Each affinity represents points measured in duplicate within three separate assays.

[2] = target: T2, NPR-A (Homo sapiens, UniProt P16066); assay: Measurement of binding affinities for NPR-A, membranes from stable 293 cell lines, 125I rat ANP displacement; details: pure synthetic peptide vs 30 pM 125I rat ANP, 2 hours room temperature; duplicate points, three separate assays
T2 construct: expressed in transfected cells
T2 sequence (P16066 33-1061): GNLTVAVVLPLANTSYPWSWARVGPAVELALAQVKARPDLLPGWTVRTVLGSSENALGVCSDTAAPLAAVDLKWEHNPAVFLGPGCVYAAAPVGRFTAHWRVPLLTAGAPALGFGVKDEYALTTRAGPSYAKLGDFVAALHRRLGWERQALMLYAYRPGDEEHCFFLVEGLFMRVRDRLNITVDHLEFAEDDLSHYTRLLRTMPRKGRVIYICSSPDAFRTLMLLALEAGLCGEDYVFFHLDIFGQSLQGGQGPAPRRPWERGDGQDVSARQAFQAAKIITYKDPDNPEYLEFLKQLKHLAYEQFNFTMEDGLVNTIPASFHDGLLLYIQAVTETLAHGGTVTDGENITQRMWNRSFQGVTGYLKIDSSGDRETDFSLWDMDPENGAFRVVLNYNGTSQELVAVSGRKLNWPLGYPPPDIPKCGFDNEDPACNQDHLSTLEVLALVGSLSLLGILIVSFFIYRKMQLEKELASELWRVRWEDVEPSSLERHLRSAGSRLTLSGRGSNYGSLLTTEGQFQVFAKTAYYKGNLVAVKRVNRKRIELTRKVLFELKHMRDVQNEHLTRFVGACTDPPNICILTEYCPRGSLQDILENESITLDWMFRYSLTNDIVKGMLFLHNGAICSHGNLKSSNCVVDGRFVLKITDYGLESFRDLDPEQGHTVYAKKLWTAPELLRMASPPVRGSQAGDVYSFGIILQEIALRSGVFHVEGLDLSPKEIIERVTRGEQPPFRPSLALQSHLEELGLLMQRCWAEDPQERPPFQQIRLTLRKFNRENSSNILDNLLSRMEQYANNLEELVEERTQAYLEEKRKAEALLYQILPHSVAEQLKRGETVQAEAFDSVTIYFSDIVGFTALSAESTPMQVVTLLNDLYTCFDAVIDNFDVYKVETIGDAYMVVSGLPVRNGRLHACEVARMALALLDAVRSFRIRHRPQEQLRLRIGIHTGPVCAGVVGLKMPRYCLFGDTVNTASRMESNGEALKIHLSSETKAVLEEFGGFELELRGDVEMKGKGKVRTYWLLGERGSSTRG
Description: as §1, §2

| SMILES | NPR-C binding affinity (Assay #1) [1] | NPR-A binding affinity (Assay #1) [2] |
| --- | --- | --- |
| CC[C@H](C)[C@@H]1NC(=O)[C@H](CCCNC(=N)N)NC(=O)[C@H](CC(=O)O)NC(=O)[C@H](CCSC)NC(=O)[C@H](CCCCN)NC(=O)[C@H](CCCNC(=N)N)NC(=O)CNC(=O)[C@H](Cc2ccccc2)NC(=O)[C@@H](NC(=O)CNC(=O)[C@H](CO)NC(=O)CNC(=O)[C@H](CCC(N)=O)NC(=O)[C@@H](NC(=O)[C@H](CCSC)NC(=O)[C@H](CCCCN)NC(=O)[C@@H]2CCCN2C(=O)[C@@H](N)CO)C(C)C)CSSC[C@@H](C(=O)N[C@@H](CCCCN)C(=O)N[C@H](C(=O)N[C@@H](CC(C)C)C(=O)N[C@@H](CCCNC(=N)N)C(=O)N[C@@H](CCCNC(=N)N)C(=O)N[C@@H](Cc2c[nH]cn2)C(=O)O)C(C)C)NC(=O)CNC(=O)[C@H](CC(C)C)NC(=O)CNC(=O)[C@H](CO)NC(=O)[C@H](CO)NC(=O)[C@H](CO)NC(=O)[C@H](CO)NC1=O [hBNP, reference compound] | 1791 ± 145 | – |
| CC[C@H](C)[C@@H]1NC(=O)[C@H](CCCNC(=N)N)NC(=O)[C@H](CC(=O)O)NC(=O)[C@H]([C@@H](C)CC)NC(=O)[C@H](CCCNC(=N)N)NC(=O)CNC(=O)CNC(=O)[C@H](Cc2ccccc2)NC(=O)[C@@H](NC(=O)[C@H](CO)NC(=O)[C@H](CO)NC(=O)[C@H](CCCNC(=N)N)NC(=O)[C@H](CCCNC(=N)N)NC(=O)[C@H](CC(C)C)NC(=O)[C@@H](N)CO)CSSC[C@@H](C(=O)N[C@@H](CC(N)=O)C(=O)N[C@@H](CO)C(=O)N[C@@H](Cc2ccccc2)C(=O)N[C@@H](CCCNC(=N)N)C(=O)N[C@@H](Cc2ccc(O)cc2)C(=O)O)NC(=O)[C@H](CCCNC(=N)N)NC(=O)[C@H](Cc2c[nH]c3ccccc23)NC(=O)[C@H](Cc2ccccc2)NC(=O)[C@H](CO)NC(=O)[C@H](CCC(N)=O)NC(=O)[C@H](C)NC(=O)CNC1=O [hANP Net12Ile, Gly20Phe, Leu21Trp, Gly22Arg, reference compound] (H-SLRRSSCFGGRIDRIGAQSFWRCNSFRY-OH; disulfide 7-23) | 295 ± 56.8 | 507 ± 118 |
